Results are given in words; binding and its absence hold for the method and conditions named. Binding seen in cells or lysates may run through a third protein. Some results given as binding are weak or reduced against the parent protein; the word gives no strength. For some assays here: Sequences can lack the tags named with a protein.
Legend:
GST-tagged TCRP1 (human) = target: T1, GST-tagged TCRP1 (human) (UniProt Q92567); experiment: pull-down; ten micrograms of GST or GST-tagged TCRP1 incubated with Tca8113/PYM cell lysates for 4 h at 4°C; immunoblot with antibodies against GST, Akt or MT1X; only the target purified
T1 sequence: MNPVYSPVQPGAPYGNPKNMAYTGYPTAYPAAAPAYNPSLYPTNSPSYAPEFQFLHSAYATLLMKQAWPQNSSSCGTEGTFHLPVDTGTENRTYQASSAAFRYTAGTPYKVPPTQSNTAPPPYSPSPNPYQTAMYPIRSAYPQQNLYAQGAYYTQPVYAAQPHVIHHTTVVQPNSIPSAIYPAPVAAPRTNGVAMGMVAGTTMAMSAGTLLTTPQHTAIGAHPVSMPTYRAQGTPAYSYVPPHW

The chains behind the UniProt entries cited, without tags or fusion partners.
UniProt P80297: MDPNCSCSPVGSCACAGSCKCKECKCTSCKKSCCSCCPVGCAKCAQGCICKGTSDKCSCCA

[1] = target: T2, tongue cancer resistance-associated protein 1 (TCRP1), endogenous (human (endogenous in Tca8113/PYM)) (UniProt Q92567); experiment: co-IP; Tca8113/PYM cell lysates (modified TNE buffer: 50 mM Tris pH 8.0, 150 mM NaCl, 1% Nonidet P-40) precipitated overnight at 4°C with anti-TCRP1 antibody or control IgG, protein G-agarose; immunoblot
T2 sequence: T1 sequence

With “metallothionein1X (MT1X) (from UniProt P80297 1-61)” the binding (GST-tagged TCRP1 (human)) was “binds” and the binding [1] was “binds”.

Reference: PMC3519677
